What was measured:
[1] = Specificity: potential interferents in blank matrix, urine SPE-LC-MS/MS; parameters: species or system human; conditions: for Specificity, recovered (percent cross-reaction): blank matrix spiked with interferent, urine assay, singlicate
[2] = Specificity: potential interferents in blank matrix, serum SPE-LC-MS/MS (6% BSA); conditions: apparent Prostaglandin D2 in blank 6% BSA spiked with interferent at 1000 pg/mL, singlicate
[3] = Selectivity: potential interferents in presence of Prostaglandin D2, urine SPE-LC-MS/MS; conditions: charcoal stripped human urine spiked with Prostaglandin D2 and interferent, singlicate
[4] = Selectivity: potential interferents in presence of Prostaglandin D2, serum SPE-LC-MS/MS (6% BSA); conditions: 6% BSA spiked with PGD2 and interferent; for Measured Concentration of Prostaglandin D2 with interferent: singlicate
[5] = interferent spiked at 1000 pg/mL in charcoal stripped human urine (blank matrix), read as Prostaglandin D2

SMILES | Measured Concentration [1, 5] [pg/mL] | Measured Concentration of Prostaglandin D2 with interferent [3] [pg/mL] | Measured Concentration of Prostaglandin D2 with interferent [4] | further results
CCCCC[C@H](O)/C=C/[C@@H]1[C@H](C/C=C\CCCC(=O)O)[C@@H](O)C[C@H]1O [8-isoProstaglandin F2α] | 0.227 | – | – | –
O=C(O)CCCCC(=O)CC[C@H]1C(=O)C=C[C@@H]1CCC(=O)O [tetranor-PGJM] | 0.228 | – | – | Measured Concentration [2]: 0 pg/mL
O=C(O)CCCCC(=O)CC[C@H]1C(=O)C=C[C@@H]1CCC(=O)O [Specificity 5, tetranor-PGJM] | – | 16.4 | 8.50 pg/mL | –
CCCCCC(=O)CC[C@H]1C(=O)C[C@H](O)[C@@H]1C/C=C\CCCC(=O)O [13,14-dihydro-15-keto Prostaglandin D2] | 0.136 | – | – | Measured Concentration [2]: 0.0169 pg/mL
CCCCC[C@H](O)/C=C/[C@@H]1[C@@H](C/C=C\CC(=O)O)[C@@H](O)C[C@@H]1O [Specificity 1, 2,3-dinor-11b-Prostaglandin F2a] | – | 17.5 | 8.41 pg/mL | –
CCCCC[C@H](O)/C=C/[C@@H]1[C@@H](C/C=C\CCCC(=O)O)[C@@H](O)C[C@H]1O [Prostaglandin F2α] | 0.541 | – | – | –
CCCCC[C@H](O)/C=C/[C@@H]1[C@@H](C/C=C\CC(=O)O)[C@@H](O)C[C@@H]1O [2,3-dinor-11β-Prostaglandin F2α] | 0.176 | – | – | Measured Concentration [2]: 0 pg/mL
CCCCC[C@@H](O)/C=C/[C@H]1C(=O)C[C@H](O)[C@@H]1C/C=C\CCCC(=O)O [Specificity 13, 15(R)-Prostaglandin D2] | 313 | 653 | 4230 pg/mL | Specificity, recovered (percent cross-reaction) [1]: 31.3%
CCCCC[C@H](O)C/C=C1/C(=O)C=C[C@@H]1C/C=C\CCCC(=O)O [Δ12-Prostaglandin J2] | 0.191 | – | – | –
CCCCC/C=C\C=C1\C(=O)C[C@H](O)[C@@H]1C/C=C\CCCC(=O)O [Specificity 10, 15-deoxy-Δ12,14-Prostaglandin D2] | – | 15.7 | (14.3) pg/mL | Measured Concentration after subtraction of concentration recovered in specificity testing ([4]; 4.63 subtracted): −4.63 = 9.67 pg/mL
O=C(O)CCCCC(=O)CC[C@H]1C(=O)C[C@H](O)[C@@H]1CCC(=O)O [Specificity 3, PGDM] | 0.228 | 18.9 | 9.84 pg/mL | Measured Concentration [2]: 0 pg/mL
CCCCC[C@H](O)/C=C/[C@H]1[C@H](O)CC(=O)[C@@H]1C/C=C\CCCC(=O)O [Prostaglandin E2] | – | – | – | Measured Concentration ([1]; interferent spiked at 352.5 pg/mL (so in the source) in charcoal stripped human urine): No Peak
CCCCCC(=O)CC[C@H]1C(=O)C[C@H](O)[C@@H]1C/C=C\CCCC(=O)O [Specificity 2, 13,14-dihydro-15-keto Prostaglandin D2] | – | 15.5 | 9.23 pg/mL | –
CCCCC[C@H](O)C/C=C1/C(=O)C=C[C@@H]1C/C=C\CCCC(=O)O [Specificity 4, Δ12-Prostaglandin J2] | – | 17.8 | 9.30 pg/mL | –
CCCCCC(=O)CC[C@@H]1[C@@H](C/C=C\CCCC(=O)O)[C@@H](O)C[C@@H]1O [listing 1 of 2 here] | – | – | – | Measured Concentration [2]: 0 pg/mL
CCCCC[C@@H](O)/C=C/[C@H]1[C@H](C/C=C\CCCC(=O)O)[C@H](O)C[C@@H]1O [ent-Prostaglandin F2 α] | – | – | – | Measured Concentration [2]: 0.749 pg/mL
CCCCC[C@H](O)/C=C/[C@H]1[C@H](O)CC(=O)[C@@H]1C/C=C\CCCC(=O)O [Specificity 14, Prostaglandin E2] | – | 15.1 | 8.32 pg/mL | –
CCCCC/C=C/C=C1C(=O)C[C@H](O)[C@@H]1C/C=C\CCCC(=O)O [15-deoxy-Δ12,14-Prostaglandin D2] | 0.348 | – | – | Measured Concentration [2]: 4.63 pg/mL
CCCCC[C@H](O)/C=C/[C@H]1C(=O)C[C@H](O)[C@@H]1C/C=C/CCCC(=O)O [5-trans Prostaglandin D2] | 25.2 | – | – | –
CCCCC[C@H](O)/C=C/[C@@H]1[C@H](C/C=C\CCCC(=O)O)[C@@H](O)C[C@H]1O [8-isoProstaglandin F2 α] | – | – | – | Measured Concentration [2]: 0 pg/mL
CCCCC[C@H](O)/C=C/[C@@H]1[C@@H](C/C=C\CCCC(=O)O)[C@@H](O)C[C@H]1O [Specificity 8, Prostaglandin F2a] | – | 19.0 | 9.38 pg/mL | –
CCCCC[C@@H](O)/C=C/[C@H]1[C@H](C/C=C\CCCC(=O)O)[C@H](O)C[C@@H]1O [Specificity 12, ent-Prostaglandin F2a] | – | 18.5 | 10.8 pg/mL | –
CCCCC[C@H](O)/C=C/[C@H]1C(=O)C[C@H](O)[C@@H]1C/C=C/CCCC(=O)O (relative stereo) [Specificity 7, 5-trans Prostaglandin D2] | – | 19.1 | 53.2 pg/mL | –
CCCCC[C@H](O)C/C=C1/C(=O)C[C@H](O)[C@@H]1C/C=C\CCCC(=O)O [Specificity 11, Δ12-Prostaglandin D2] | 147 | 164 | 1990 pg/mL | Specificity, recovered (percent cross-reaction) [1]: 14.7%
CCCCCC(=O)CC[C@@H]1[C@@H](C/C=C\CCCC(=O)O)[C@@H](O)C[C@@H]1O [listing 2 of 2 here] | 0.191 | – | – | –
CCCCC[C@H](O)/C=C/[C@@H]1[C@H](C/C=C\CCCC(=O)O)[C@@H](O)C[C@H]1O [Specificity 9, 8-isoProstaglandin F2a] | – | 16.3 | 8.50 pg/mL | –
CCCCCC(=O)CC[C@@H]1[C@@H](C/C=C\CCCC(=O)O)[C@@H](O)C[C@@H]1O [Specificity 6, 11b-13,14-dihydro-15-keto Prostaglandin F2a] | – | 19.6 | 9.92 pg/mL | –
CCCCC[C@@H](O)/C=C/[C@H]1[C@H](C/C=C\CCCC(=O)O)[C@H](O)C[C@@H]1O [ent-Prostaglandin F2α] | 0.495 | – | – | –

Reference: patent publication US12025619B2, “Methods and systems for detecting prostaglandins by LC-MS/MS” (Laboratory Corporation of America Holdings, priority 2020, dated 2024)
